These are yes or no findings as the source states them, for the method shown. A result given as binding can be weak or reduced; the word gives no strength.
Molecular target: human PCSK9 (proprotein convertase subtilisin/kexin type 9), wild type (human)
Test: BIAcore solution equilibrium assay, 21B12 immobilised on CM5

- binding: binds
B1: 21B12, anti-PCSK9 huIgG4 (antibody, V domains shown)
VH: QVQLVQSGAEVKKPGASVKVSCKASGYTLTSYGISWVRQAPGQGLEWMGWVSFYNGNTNYAQKLQGRGTMTTDPSTSTAYMELRSLRSDDTAVYYCARGYGMDVWGQGTTVTVSS
VL: QSALTQPASVSGSPGQSITISCTGTSSDVGGYNSVSWYQQHPGKAPKLMIYEVSNRPSGVSNRFSGSKSGNTASLTISGLQAEDEADYYCNSYTSTSMVFGGGTKLTVLQ
